Measurements published in US11571411B2, “Use of a bisamide derivative of malonic acid for treating allergic and other diseases in humans and animals” (PHARMENTERPRISES ALLERGY LLC, priority 2018, dated 2023).
Further values from the same series stand in other lists.

Tests used:
[1] = test system: histamine-induced nasal congestion model; test: Histamine-induced nasal congestion model in dogs, nasal administration of 1% solution; assay type: in vivo, Beagle dogs
Description: A histamine-induced nasal congestion model in dogs was performed according to the standard procedure [Tiniakov R. L., Tiniakova O. P., McLeod R. L., Hey J. A., Yeates D. B. Canine model of nasal congestion and allergic rhinitis//J Appl Physiol. 2003. V.94(5). P.1821-1828]. Beagle dogs were injected to the nasal cavity with a 5% histamine solution in a volume of 250 μl/nostril. The volume of the nasal cavity of the right and left nostrils was measured using a rhinometer before and 5, 10, 15, 20, 30, 40, 50 and 60 minutes after administration of histamine. Five experiments were carried out in which Compound I was administered intranasally once in the form of a 1% solution in a volume of 50 μl at different time periods: 1) 5 minutes after the administration of histamine; 2) right before administration of histamine; 3) 3 hours before administration of histamine; 4) […] administration of histamine; and 5) 8 hours before administration of histamine.

[2] = test system: histamine-induced nasal congestion model; test: Histamine-induced nasal congestion model in dogs, oral administration; assay type: in vivo, Beagle dogs; conditions: oral for 14 days
Description: A histamine-induced nasal congestion model in dogs was performed according to the standard procedure [Tiniakov R. L., Tiniakova O. P., McLeod R. L., Hey J. A., Yeates D. B. Canine model of nasal congestion and allergic rhinitis//J Appl Physiol. 2003. V.94(5). P.1821-1828]. Beagle dogs were injected in the nasal cavity with a 5% histamine solution in a volume of 250 μl/nostril. The volume of the nasal cavity of the right and left nostrils was measured using a rhinometer before and 5, 10, 15, 20, 30, 40, 50 and 60 minutes after administration of histamine. Three experiments were performed, in which Compound I was administered orally once at different times: 1) 30 minutes before administration of histamine; 2) 1 hour before administration of histamine; and 3) 6 hours before administration of histamine, and one experiment was performed, in which Compound I was administered orally once daily for 14 days, the last administration was carried out 1 hour before administration of histamine.

[3] = 1% solution intranasally 5 minutes after histamine administration, 5 minutes after histamine
[4] = 1% solution intranasally 5 minutes after histamine administration, 10 minutes after histamine
[5] = 1% solution intranasally 5 minutes after histamine administration, 15 minutes after histamine
[6] = 1% solution intranasally 5 minutes after histamine administration, 20 minutes after histamine
[7] = 1% solution intranasally 5 minutes after histamine administration, 30 minutes after histamine
[8] = 1% solution intranasally 5 minutes after histamine administration, 40 minutes after histamine
[9] = 1% solution intranasally 5 minutes after histamine administration, 50 minutes after histamine
[10] = 1% solution intranasally 5 minutes after histamine administration, 60 minutes after histamine
[11] = 1% solution intranasally 5 minutes after histamine administration, before histamine administration
[12] = 1% solution intranasally 3 hours before histamine administration, 5 minutes after histamine
[13] = 1% solution intranasally 3 hours before histamine administration, 10 minutes after histamine
[14] = 1% solution intranasally 3 hours before histamine administration, 15 minutes after histamine
[15] = 1% solution intranasally 3 hours before histamine administration, 20 minutes after histamine
[16] = 1% solution intranasally 3 hours before histamine administration, 30 minutes after histamine
[17] = 1% solution intranasally 3 hours before histamine administration, 40 minutes after histamine
[18] = 1% solution intranasally 3 hours before histamine administration, 50 minutes after histamine
[19] = 1% solution intranasally 3 hours before histamine administration, 60 minutes after histamine
[20] = 1% solution intranasally 3 hours before histamine administration, before histamine administration
[21] = 1% solution intranasally 6 hours before histamine administration, 5 minutes after histamine
[22] = 1% solution intranasally 6 hours before histamine administration, 10 minutes after histamine
[23] = 1% solution intranasally 6 hours before histamine administration, 15 minutes after histamine
[24] = 1% solution intranasally 6 hours before histamine administration, 20 minutes after histamine
[25] = 1% solution intranasally 6 hours before histamine administration, 30 minutes after histamine
[26] = 1% solution intranasally 6 hours before histamine administration, 40 minutes after histamine
[27] = 1% solution intranasally 6 hours before histamine administration, 50 minutes after histamine
[28] = 1% solution intranasally 6 hours before histamine administration, 60 minutes after histamine
[29] = 1% solution intranasally 6 hours before histamine administration, before histamine administration
[30] = 1% solution intranasally 8 hours before histamine administration, 5 minutes after histamine
[31] = 1% solution intranasally 8 hours before histamine administration, 10 minutes after histamine
[32] = 1% solution intranasally 8 hours before histamine administration, 15 minutes after histamine
[33] = 1% solution intranasally 8 hours before histamine administration, 20 minutes after histamine
[34] = 1% solution intranasally 8 hours before histamine administration, 30 minutes after histamine
[35] = 1% solution intranasally 8 hours before histamine administration, 40 minutes after histamine
[36] = 1% solution intranasally 8 hours before histamine administration, 50 minutes after histamine
[37] = 1% solution intranasally 8 hours before histamine administration, 60 minutes after histamine
[38] = 1% solution intranasally 8 hours before histamine administration, before histamine administration
[39] = 1% solution intranasally right before histamine administration, 5 minutes after histamine
[40] = 1% solution intranasally right before histamine administration, 10 minutes after histamine
[41] = 1% solution intranasally right before histamine administration, 15 minutes after histamine
[42] = 1% solution intranasally right before histamine administration, 20 minutes after histamine
[43] = 1% solution intranasally right before histamine administration, 30 minutes after histamine
[44] = 1% solution intranasally right before histamine administration, 40 minutes after histamine
[45] = 1% solution intranasally right before histamine administration, 50 minutes after histamine
[46] = 1% solution intranasally right before histamine administration, 60 minutes after histamine
[47] = 1% solution intranasally right before histamine administration, before histamine administration
[48] = 0.13 mg/kg, 50 minutes after histamine
[49] = 0.13 mg/kg, 60 minutes after histamine
[50] = 0.27 mg/kg, 50 minutes after histamine
[51] = 0.27 mg/kg, 60 minutes after histamine
[52] = 0.54 mg/kg, 30 minutes after histamine
[53] = 0.54 mg/kg, 40 minutes after histamine
[54] = 0.54 mg/kg, 50 minutes after histamine
[55] = 0.54 mg/kg, 60 minutes after histamine

## O=C(CC(=O)NCCc1cnc[nH]1)NCCc1cnc[nH]1 [Compound I, N,N′-bis(2-(1H-imidazol-5-yl)ethyl)malonamide]
[1]; [3]
  Volume of the nasal cavity, left nostril: 4.2 ± 0.4&$ cm^3
  Volume of the nasal cavity, right nostril: 4.8 ± 0.1&$ cm^3
[1]; [4]
  Volume of the nasal cavity, left nostril: 4.3 ± 0.2$ cm^3
  Volume of the nasal cavity, right nostril: 4.7 ± 0.2&$ cm^3
[1]; [5]
  Volume of the nasal cavity, left nostril: 4.6 ± 0.5 cm^3
  Volume of the nasal cavity, right nostril: 4.6 ± 0.3& cm^3
[1]; [6]
  Volume of the nasal cavity, left nostril: 4.2 ± 0.2& cm^3
  Volume of the nasal cavity, right nostril: 4.6 ± 0.4 cm^3
[1]; [7]
  Volume of the nasal cavity, left nostril: 4.6 ± 0.1& cm^3
  Volume of the nasal cavity, right nostril: 4.9 ± 0.2&$ cm^3
[1]; [8]
  Volume of the nasal cavity, left nostril: 4.5 ± 0.3& cm^3
  Volume of the nasal cavity, right nostril: 4.8 ± 0.4& cm^3
[1]; [9]
  Volume of the nasal cavity, left nostril: 4.2 ± 0.2& cm^3
  Volume of the nasal cavity, right nostril: 4.1 ± 0.4 cm^3
[1]; [10]
  Volume of the nasal cavity, left nostril: 5.2 ± 0.5& cm^3
  Volume of the nasal cavity, right nostril: 5.2 ± 0.3&$ cm^3
[1]; [11]
  Volume of the nasal cavity, left nostril: 3.9 ± 0.4 cm^3
  Volume of the nasal cavity, right nostril: 3.8 ± 0.3 cm^3
[1]; [12]
  Volume of the nasal cavity, left nostril: 2.4 ± 0.3$ cm^3
  Volume of the nasal cavity, right nostril: 2.2 ± 0.3$ cm^3
[1]; [13]
  Volume of the nasal cavity, left nostril: 2.9 ± 0.3$ cm^3
  Volume of the nasal cavity, right nostril: 3.3 ± 0.4$ cm^3
[1]; [14]
  Volume of the nasal cavity, left nostril: 2.7 ± 0.4&$ cm^3
  Volume of the nasal cavity, right nostril: 2.8 ± 0.4&$ cm^3
[1]; [15]
  Volume of the nasal cavity, left nostril: 2.2 ± 0.2&$ cm^3
  Volume of the nasal cavity, right nostril: 2.1 ± 0.2&$ cm^3
[1]; [16]
  Volume of the nasal cavity, left nostril: 2.9 ± 0.2&$ cm^3
  Volume of the nasal cavity, right nostril: 3.0 ± 0.1&$ cm^3
[1]; [17]
  Volume of the nasal cavity, left nostril: 3.6 ± 0.1&$ cm^3
  Volume of the nasal cavity, right nostril: 3.6 ± 0.1&$ cm^3
[1]; [18]
  Volume of the nasal cavity, left nostril: 2.8 ± 0.2$ cm^3
  Volume of the nasal cavity, right nostril: 2.7 ± 0.2$ cm^3
[1]; [19]
  Volume of the nasal cavity, left nostril: 5.0 ± 0.2 cm^3
  Volume of the nasal cavity, right nostril: 5.2 ± 0.3 cm^3
[1]; [20]
  Volume of the nasal cavity, left nostril: 4.8 ± 0.2 cm^3
  Volume of the nasal cavity, right nostril: 4.9 ± 0.2 cm^3
[1]; [21]
  Volume of the nasal cavity, left nostril: 3.6 ± 0.2& cm^3
  Volume of the nasal cavity, right nostril: 3.4 ± 0.2& cm^3
[1]; [22]
  Volume of the nasal cavity, left nostril: 3.8 ± 0.2&$ cm^3
  Volume of the nasal cavity, right nostril: 4 ± 0.3&$ cm^3
[1]; [23]
  Volume of the nasal cavity, left nostril: 3.9 ± 0.5& cm^3
  Volume of the nasal cavity, right nostril: 3.5 ± 0.2&$ cm^3
[1]; [24]
  Volume of the nasal cavity, left nostril: 3.7 ± 0.1&$ cm^3
  Volume of the nasal cavity, right nostril: 3.6 ± 0.2&$ cm^3
[1]; [25]
  Volume of the nasal cavity, left nostril: 4.3 ± 0.2& cm^3
  Volume of the nasal cavity, right nostril: 3.8 ± 0.1&$ cm^3
[1]; [26]
  Volume of the nasal cavity, left nostril: 3.3 ± 0.1$ cm^3
  Volume of the nasal cavity, right nostril: 3.8 ± 0.2$ cm^3
[1]; [27]
  Volume of the nasal cavity, left nostril: 3.9 ± 0.1$ cm^3
  Volume of the nasal cavity, right nostril: 4.2 ± 0.2 cm^3
[1]; [28]
  Volume of the nasal cavity, left nostril: 4.0 ± 0.0 cm^3
  Volume of the nasal cavity, right nostril: 4.5 ± 0.3$ cm^3
[1]; [29]
  Volume of the nasal cavity, left nostril: 4.5 ± 0.2 cm^3
  Volume of the nasal cavity, right nostril: 4.1 ± 0.2 cm^3
[1]; [30]
  Volume of the nasal cavity, left nostril: 3.0 ± 0.2$ cm^3
  Volume of the nasal cavity, right nostril: 2.8 ± 0.2$ cm^3
[1]; [31]
  Volume of the nasal cavity, left nostril: 2.9 ± 0.1&$ cm^3
  Volume of the nasal cavity, right nostril: 2.8 ± 0.2&$ cm^3
[1]; [32]
  Volume of the nasal cavity, left nostril: 2.0 ± 0.1&$ cm^3
  Volume of the nasal cavity, right nostril: 1.9 ± 0.2&$ cm^3
[1]; [33]
  Volume of the nasal cavity, left nostril: 1.7 ± 0.1&$ cm^3
  Volume of the nasal cavity, right nostril: 1.8 ± 0.2&$ cm^3
[1]; [34]
  Volume of the nasal cavity, left nostril: 2.7 ± 0.2&$ cm^3
  Volume of the nasal cavity, right nostril: 2.5 ± 0.2&$ cm^3
[1]; [35]
  Volume of the nasal cavity, left nostril: 3.6 ± 0.2$ cm^3
  Volume of the nasal cavity, right nostril: 3.5 ± 0.2$ cm^3
[1]; [36]
  Volume of the nasal cavity, left nostril: 3.7 ± 0.1 cm^3
  Volume of the nasal cavity, right nostril: 3.7 ± 0.2 cm^3
[1]; [37]
  Volume of the nasal cavity, left nostril: 4.1 ± 0.2 cm^3
  Volume of the nasal cavity, right nostril: 4 ± 0.2$ cm^3
[1]; [38]
  Volume of the nasal cavity, left nostril: 4.5 ± 0.1 cm^3
  Volume of the nasal cavity, right nostril: 4.1 ± 0.1 cm^3
[1]; [39]
  Volume of the nasal cavity, left nostril: 3.2 ± 0.1& cm^3
  Volume of the nasal cavity, right nostril: 3.4 ± 0.1& cm^3
[1]; [40]
  Volume of the nasal cavity, left nostril: 2.8 ± 0.1&$ cm^3
  Volume of the nasal cavity, right nostril: 2.7 ± 0.1&$ cm^3
[1]; [41]
  Volume of the nasal cavity, left nostril: 3.2 ± 0.3& cm^3
  Volume of the nasal cavity, right nostril: 3.4 ± 0.3& cm^3
[1]; [42]
  Volume of the nasal cavity, left nostril: 3.4 ± 0.2& cm^3
  Volume of the nasal cavity, right nostril: 3.3 ± 0.1& cm^3
[1]; [43]
  Volume of the nasal cavity, left nostril: 3.1 ± 0.2& cm^3
  Volume of the nasal cavity, right nostril: 3.2 ± 0.0& cm^3
[1]; [44]
  Volume of the nasal cavity, left nostril: 4.1 ± 0.3 cm^3
  Volume of the nasal cavity, right nostril: 4.0 ± 0.1& cm^3
[1]; [45]
  Volume of the nasal cavity, left nostril: 3.4 ± 0.4 cm^3
  Volume of the nasal cavity, right nostril: 3.4 ± 0.1 cm^3
[1]; [46]
  Volume of the nasal cavity, left nostril: 3.2 ± 0.2 cm^3
  Volume of the nasal cavity, right nostril: 3.6 ± 0.3 cm^3
[1]; [47]
  Volume of the nasal cavity, left nostril: 3.6 ± 0.2 cm^3
  Volume of the nasal cavity, right nostril: 3.9 ± 0.5 cm^3
[2]; [48]
  Volume of the nasal cavity, left nostril: 3.7 ± 0.2$ cm^3
  Volume of the nasal cavity, right nostril: 3.7 ± 0.2$ cm^3
[2]; [49]
  Volume of the nasal cavity, left nostril: 3.8 ± 0.1$ cm^3
  Volume of the nasal cavity, right nostril: 3.8 ± 0.1$ cm^3
[2]; [50]
  Volume of the nasal cavity, left nostril: 3.7 ± 0.1$ cm^3
  Volume of the nasal cavity, right nostril: 3.7 ± 0.1$ cm^3
[2]; [51]
  Volume of the nasal cavity, left nostril: 3.8 ± 0.1$ cm^3
  Volume of the nasal cavity, right nostril: 3.8 ± 0.1$ cm^3
[2]; [52]
  Volume of the nasal cavity, left nostril: 3.5 ± 0.1*$ cm^3
  Volume of the nasal cavity, right nostril: 3.5 ± 0.2*$ cm^3
[2]; [53]
  Volume of the nasal cavity, left nostril: 3.7 ± 0.1*$ cm^3
  Volume of the nasal cavity, right nostril: 3.7 ± 0.2*$ cm^3
[2]; [54]
  Volume of the nasal cavity, left nostril: 3.7 ± 0.1$ cm^3
  Volume of the nasal cavity, right nostril: 3.7 ± 0.2$ cm^3
[2]; [55]
  Volume of the nasal cavity, left nostril: 3.8 ± 0.1$ cm^3
  Volume of the nasal cavity, right nostril: 3.8 ± 0.1$ cm^3
